{"source": "the supplement of paper PMC8728848", "binders": {"B1": {"name": "CBP21 (Serratia marcescens), O83009 (protein)", "chain": "MNKTSRTLLSLGLLSAAMFGVSQQANAHGYVESPASRAYQCKLQLNTQCGSVQAEPQSVEGLKGFPQAGPADGHIASADKSTFFELDQQTPTRWNKLNLKTGPNSFTWKLTARHSTTSWRYFITKPNWDASQPLTRASFDLTPFCQFNDGGAIPAAQVTHQCNIPADRSGSHVILAVWDIADTANAFYQAIDVNLSK"}}, "experiment_in_all_cases": "glycan array binding signal (z-score within array); higher = stronger binding", "details_in_all_cases": "glycan notation: IUPAC condensed, linker removed; mutation: Y54A", "key": {"[1]": {"target": "Gal3S(b1-3)[Fuc(a1-4)]GlcNAc", "outline": "(§1)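 From the Consortium for Functional Glycomics database, 3228 arrays were curated, keeping only those whose protein sequence was available. Binding is given as a within-array Z-score averaged across arrays sharing a protein sequence and across linkers. Negative Z-scores can be read as non-binding.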"}, "Gal3S(b1-4)Glc": {"target": "Gal3S(b1-4)Glc", "outline": "as §1"}, "Gal3S(b1-4)Glc6S": {"target": "Gal3S(b1-4)Glc6S", "outline": "as §1"}, "Gal3S(b1-4)GlcNAc": {"target": "Gal3S(b1-4)GlcNAc", "outline": "as §1"}, "[2]": {"target": "Gal3S(b1-4)[Fuc(a1-3)]Glc6S", "outline": "as §1"}, "[3]": {"target": "Gal3S(b1-4)[Fuc(a1-3)]GlcNAc", "outline": "as §1"}, "[4]": {"target": "Gal3S(b1-4)[Fuc(a1-3)]GlcNAc6S", "outline": "as §1"}, "Gal3S4S(b1-4)GlcNAc": {"target": "Gal3S4S(b1-4)GlcNAc", "outline": "as §1"}, "Gal3S6S(b1-4)GlcNAc": {"target": "Gal3S6S(b1-4)GlcNAc", "outline": "as §1"}, "Gal3S6S(b1-4)GlcNAc6S": {"target": "Gal3S6S(b1-4)GlcNAc6S", "outline": "as §1"}, "Gal4S(b1-4)GlcNAc": {"target": "Gal4S(b1-4)GlcNAc", "outline": "as §1"}, "Gal4S6S(b1-4)GlcNAc": {"target": "Gal4S6S(b1-4)GlcNAc", "outline": "as §1"}, "Gal6P(b1-4)GlcNAc": {"target": "Gal6P(b1-4)GlcNAc", "outline": "as §1"}, "Gal6S(b1-3)GlcNAc": {"target": "Gal6S(b1-3)GlcNAc", "outline": "as §1"}, "Gal6S(b1-3)GlcNAc6S": {"target": "Gal6S(b1-3)GlcNAc6S", "outline": "as §1"}, "Gal6S(b1-4)Glc": {"target": "Gal6S(b1-4)Glc", "outline": "as §1"}, "Gal6S(b1-4)Glc6S": {"target": "Gal6S(b1-4)Glc6S", "outline": "as §1"}, "Gal6S(b1-4)GlcNAc": {"target": "Gal6S(b1-4)GlcNAc", "outline": "as §1"}, "Gal6S(b1-4)GlcNAc6S": {"target": "Gal6S(b1-4)GlcNAc6S", "outline": "as §1"}, "GalNAc(a1-3)Gal": {"target": "GalNAc(a1-3)Gal", "outline": "as §1"}, "GalNAc(a1-3)GalNAc": {"target": "GalNAc(a1-3)GalNAc", "outline": "as §1"}, "[5]": {"target": "GalNAc(a1-3)GalNAc(b1-3)Gal(a1-4)Gal(b1-4)Glc", "outline": "as §1"}, "[6]": {"target": "GalNAc(a1-3)GalNAc(b1-3)Gal(a1-4)Gal(b1-4)GlcNAc", "outline": "as §1"}, "GalNAc(b1-3)Gal": {"target": "GalNAc(b1-3)Gal", "outline": "as §1"}, "[7]": {"target": "GalNAc(b1-3)Gal(a1-4)Gal(b1-4)GlcNAc", "outline": "as §1"}, "[8]": {"target": "GalNAc(b1-3)Gal(a1-4)Gal(b1-4)GlcNAc(b1-3)Gal(b1-4)Glc", "outline": "as §1"}, "[9]": {"target": "GalNAc(b1-3)Gal(a1-6)Gal(b1-4)Glc", "outline": "as §1"}, "GalNAc(b1-3)GalNAc": {"target": "GalNAc(b1-3)GalNAc", "outline": "as §1"}, "GalNAc(b1-3)GlcNAc": {"target": "GalNAc(b1-3)GlcNAc", "outline": "as §1"}, "GalNAc(b1-4)Gal(b1-4)Glc": {"target": "GalNAc(b1-4)Gal(b1-4)Glc", "outline": "as §1"}, "GalNAc(b1-4)GlcNAc": {"target": "GalNAc(b1-4)GlcNAc", "outline": "as §1"}, "[10]": {"target": "GalNAc(b1-4)GlcNAc(b1-2)Man", "outline": "as §1"}, "[11]": {"target": "GalNAc(b1-4)GlcNAc(b1-2)Man(a1-3)[GalNAc(b1-4)GlcNAc(b1-2)Man(a1-6)]Man(b1-4)GlcNAc(b1-4)GlcNAc", "outline": "as §1"}, "[12]": {"target": "GalNAc(b1-4)GlcNAc(b1-3)GalNAc(b1-4)GlcNAc", "outline": "as §1"}, "GalNAc(b1-4)GlcNAc6S": {"target": "GalNAc(b1-4)GlcNAc6S", "outline": "as §1"}, "GalNAc(b1-6)GalNAc": {"target": "GalNAc(b1-6)GalNAc", "outline": "as §1"}, "GalNAc3S(b1-4)GlcNAc": {"target": "GalNAc3S(b1-4)GlcNAc", "outline": "as §1"}, "GalNAc3S(b1-4)GlcNAc3S": {"target": "GalNAc3S(b1-4)GlcNAc3S", "outline": "as §1"}, "[13]": {"target": "GalNAc3S(b1-4)[Fuc(a1-3)]GlcNAc", "outline": "as §1"}, "GalNAc4S6S(b1-4)GlcNAc": {"target": "GalNAc4S6S(b1-4)GlcNAc", "outline": "as §1"}, "GalNAc6S(b1-4)GlcNAc": {"target": "GalNAc6S(b1-4)GlcNAc", "outline": "as §1"}, "Glc(a1-4)Glc": {"target": "Glc(a1-4)Glc", "outline": "as §1"}, "[14]": {"target": "Glc(a1-4)Glc(a1-4)Glc(a1-4)Glc", "outline": "as §1"}, "Glc(a1-6)Glc(a1-6)Glc": {"target": "Glc(a1-6)Glc(a1-6)Glc", "outline": "as §1"}, "[15]": {"target": "Glc(a1-6)Glc(a1-6)Glc(a1-6)Glc", "outline": "as §1"}}, "note": "This is one part of the list."}
{"binder": "B1", "values": [{"measurement": "glycan array binding signal (z-score)", "setting": "[1]", "result": 0.769}, {"measurement": "glycan array binding signal (z-score)", "setting": "Gal3S(b1-4)Glc", "result": 0.137}, {"measurement": "glycan array binding signal (z-score)", "setting": "Gal3S(b1-4)Glc6S", "result": 0.102}, {"measurement": "glycan array binding signal (z-score)", "setting": "Gal3S(b1-4)GlcNAc", "result": -0.02}, {"measurement": "glycan array binding signal (z-score)", "setting": "[2]", "result": -0.341}, {"measurement": "glycan array binding signal (z-score)", "setting": "[3]", "result": -0.299}, {"measurement": "glycan array binding signal (z-score)", "setting": "[4]", "result": -0.109}, {"measurement": "glycan array binding signal (z-score)", "setting": "Gal3S4S(b1-4)GlcNAc", "result": 0.495}, {"measurement": "glycan array binding signal (z-score)", "setting": "Gal3S6S(b1-4)GlcNAc", "result": -0.128}, {"measurement": "glycan array binding signal (z-score)", "setting": "Gal3S6S(b1-4)GlcNAc6S", "result": 4.88}, {"measurement": "glycan array binding signal (z-score)", "setting": "Gal4S(b1-4)GlcNAc", "result": -0.419}, {"measurement": "glycan array binding signal (z-score)", "setting": "Gal4S6S(b1-4)GlcNAc", "result": 0.517}, {"measurement": "glycan array binding signal (z-score)", "setting": "Gal6P(b1-4)GlcNAc", "result": 0.775}, {"measurement": "glycan array binding signal (z-score)", "setting": "Gal6S(b1-3)GlcNAc", "result": -0.43}, {"measurement": "glycan array binding signal (z-score)", "setting": "Gal6S(b1-3)GlcNAc6S", "result": 0.173}, {"measurement": "glycan array binding signal (z-score)", "setting": "Gal6S(b1-4)Glc", "result": -0.736}, {"measurement": "glycan array binding signal (z-score)", "setting": "Gal6S(b1-4)Glc6S", "result": -0.612}, {"measurement": "glycan array binding signal (z-score)", "setting": "Gal6S(b1-4)GlcNAc", "result": 4.2}, {"measurement": "glycan array binding signal (z-score)", "setting": "Gal6S(b1-4)GlcNAc6S", "result": 2.1}, {"measurement": "glycan array binding signal (z-score)", "setting": "GalNAc(a1-3)Gal", "result": -1.38}, {"measurement": "glycan array binding signal (z-score)", "setting": "GalNAc(a1-3)GalNAc", "result": -0.29}, {"measurement": "glycan array binding signal (z-score)", "setting": "[5]", "result": 0.368}, {"measurement": "glycan array binding signal (z-score)", "setting": "[6]", "result": -0.106}, {"measurement": "glycan array binding signal (z-score)", "setting": "GalNAc(b1-3)Gal", "result": -0.333}, {"measurement": "glycan array binding signal (z-score)", "setting": "[7]", "result": -0.186}, {"measurement": "glycan array binding signal (z-score)", "setting": "[8]", "result": -0.857}, {"measurement": "glycan array binding signal (z-score)", "setting": "[9]", "result": 0.018}, {"measurement": "glycan array binding signal (z-score)", "setting": "GalNAc(b1-3)GalNAc", "result": -0.995}, {"measurement": "glycan array binding signal (z-score)", "setting": "GalNAc(b1-3)GlcNAc", "result": -1.21}, {"measurement": "glycan array binding signal (z-score)", "setting": "GalNAc(b1-4)Gal(b1-4)Glc", "result": -0.182}, {"measurement": "glycan array binding signal (z-score)", "setting": "GalNAc(b1-4)GlcNAc", "result": 0.593}, {"measurement": "glycan array binding signal (z-score)", "setting": "[10]", "result": -0.018}, {"measurement": "glycan array binding signal (z-score)", "setting": "[11]", "result": -1.16}, {"measurement": "glycan array binding signal (z-score)", "setting": "[12]", "result": -0.533}, {"measurement": "glycan array binding signal (z-score)", "setting": "GalNAc(b1-4)GlcNAc6S", "result": -0.738}, {"measurement": "glycan array binding signal (z-score)", "setting": "GalNAc(b1-6)GalNAc", "result": -0.944}, {"measurement": "glycan array binding signal (z-score)", "setting": "GalNAc3S(b1-4)GlcNAc", "result": 0.647}, {"measurement": "glycan array binding signal (z-score)", "setting": "GalNAc3S(b1-4)GlcNAc3S", "result": 0.127}, {"measurement": "glycan array binding signal (z-score)", "setting": "[13]", "result": 0.039}, {"measurement": "glycan array binding signal (z-score)", "setting": "GalNAc4S6S(b1-4)GlcNAc", "result": 0.112}, {"measurement": "glycan array binding signal (z-score)", "setting": "GalNAc6S(b1-4)GlcNAc", "result": 0.071}, {"measurement": "glycan array binding signal (z-score)", "setting": "Glc(a1-4)Glc", "result": -0.336}, {"measurement": "glycan array binding signal (z-score)", "setting": "[14]", "result": 0.407}, {"measurement": "glycan array binding signal (z-score)", "setting": "Glc(a1-6)Glc(a1-6)Glc", "result": 0.674}, {"measurement": "glycan array binding signal (z-score)", "setting": "[15]", "result": 0.183}]}
